In the assay the test system is L1210 leukemia ip in BDF1 mice, survival T/C. In words: NCI In Vivo Anticancer Drug Screen. Data for tumor model L1210 Leukemia (intraperitoneal) in B6D2F1 (BDF1) mice. The following applies: T/C endpoint: mean survival time, higher T/C = longer survival.
Setting [1] is: dose: 100.0 mg/kg/injection, schedule: Q01DX009 (ip), vehicle: Klucel (hydroxypropylcellulose) (HPC).
Where [2] appears, read: dose: 200.0 mg/kg/injection, schedule: Q01DX009 (ip), vehicle: Klucel (hydroxypropylcellulose) (HPC).
Setting [3] is: dose: 400.0 mg/kg/injection, schedule: Q01DX009 (ip), vehicle: Klucel (hydroxypropylcellulose) (HPC).
Setting [4] is: dose: 200.0 mg/kg/injection, schedule: Q04DX003 (ip), vehicle: saline with Tween-80.
Setting [5] is: dose: 400.0 mg/kg/injection, schedule: Q04DX003 (ip), vehicle: saline with Tween-80.
Where [6] appears, read: dose: 400.0 mg/kg/injection, schedule: Q04DX003 (ip), vehicle: Klucel (hydroxypropylcellulose) (HPC).
[7] abbreviates: dose: 100.0 mg/kg/injection, schedule: Q01DX Z (ip), vehicle: carboxymethylcellulose (CMC).

The list is a part of this screen's results and no random one: it is rich in T/C values a quarter to a half above the control, in often repeated tests (any T/C) and in doses without a T/C. Further doses and runs are listed elsewhere. T/C is the treated group as % of the vehicle group. Some entries give survivors of the animals treated and no T/C: the source holds a T/C of zero for them, seemingly a mark for toxic or unscored doses. Some survivor counts are full or nearly so, which does not show that the dose was tolerated: the source hardly ever lists a survival T/C far under the control, and the zero likely stands for such cases as well. Counts of survivors are from the toxicity check (mostly the fifth day) where no day follows; animals may have died later. Schedule codes are those of the source, taken here to give the interval after Q, in days (D) or hours (H), and the number of doses after X. Some schedule codes hold Z or #, which are not explained here. For survival time, the PubChem record calls one and a half times the control and up active, and a quarter to a half above the control has no call in these data; cut-offs in other NCI protocols can differ. Some entries hold several experiments; their values stand side by side, smallest first.

With `NC(=O)C1(Nc2ccc(-c3ccc(NC4(C(N)=O)CCCC4)cc3)cc2)CCCC1`, the survivor count (dose: 400.0 mg/kg/injection, schedule: Q01DX001 (ip), vehicle: carboxymethylcellulose (CMC)) is given as 4 of 4.
For the molecule `CCN(C(=O)Nc1ccc(OC)cc1)c1ccccc1C`, under setting [1], the survivor count is 6 of 6.
As for `COc1cccc(/C=N/NC(=O)c2ccncc2)c1OC`, the survivor count by setting is: under setting [2], 1 of 6; under setting [3], 0 of 6.
For the molecule `CSc1nc([N+](=O)[O-])c2cnccn12`, the survivor count reads like this: (dose: 50.0 mg/kg/injection, schedule: Q04DX003 (ip), vehicle: saline with Tween-80) 3 of 6; (dose: 100.0 mg/kg/injection, schedule: Q04DX003 (ip), vehicle: saline with Tween-80) 4 of 6; under setting [4], 1 of 6; under setting [5], 1 of 6.
`NC(Cc1ccc(O)cc1)C(=O)N/N=C/c1ccc(N(CCCl)CCCl)cc1` (stereo unspecified): the T/C was 128 % of control under setting [2] and 129 % of control under setting [6].
Turning to `CC[N+]1(Cc2ccccc2)CC2(CCCCC2)ON2C1CC(C)C2(C)C` (stereo unspecified), the survivor count under setting [4] is on record as 3 of 6 and the survivor count under setting [5] is 0 of 6.
Consider `CC(=O)OCC[N+](C)(C)CCCCC[N+](C)(C)CCOC(C)=O`, for which the survivor count (dose: 400.0 mg/kg/injection, schedule: Q01DX009 (ip), vehicle: saline) is 1 of 6.
For `CC(O)C(N)C(=O)O` (stereo unspecified), the survivor count under setting [1] was 3 of 3 and the survivor count under setting [3] is 3 of 3.
On to `CCCCCCCCCCCC(=O)NC(=S)Nc1cccc2ccccc12`, for which, under setting [6], the survivor count was 6 of 6.
On to `CC1CC[N+]2(C)CCCC12` (stereo unspecified), for which the survivor count is 0 of 3 (dose: 25.0 mg/kg/injection, schedule: Q01DX009 (ip), vehicle: saline); 0 of 3 (dose: 50.0 mg/kg/injection, schedule: Q01DX009 (ip), vehicle: saline); 0 of 3 (dose: 100.0 mg/kg/injection, schedule: Q01DX009 (ip), vehicle: saline); 0 of 3 (dose: 200.0 mg/kg/injection, schedule: Q01DX009 (ip), vehicle: saline).
For the molecule `[O-][n+]1ccc(CCc2ccccc2)cc1`, the survivor count (dose: 400.0 mg/kg/injection, schedule: Q04DX002 (ip), vehicle: saline with Tween-80) is on record as 0 of 3.
With `COc1cc(-c2ccc(Nc3ccccc3C(=O)O)c(OC)c2)ccc1Nc1ccccc1C(=O)O`, the T/C runs as follows: (dose: 44.0 mg/kg/injection, schedule: Q01DX Z (ip), vehicle: saline) 127 % of control; (dose: 98.0 mg/kg/injection, schedule: Q01DX Z (ip), vehicle: saline) 134 % of control; under setting [7], 101, 103, 129 % of control; (dose: 100.0 mg/kg/injection, schedule: Q01DX Z (ip), vehicle: saline) 132 % of control; (dose: 150.0 mg/kg/injection, schedule: Q01DX Z (ip), vehicle: saline) 135 % of control. The survivor count is, setting by setting: (dose: 65.0 mg/kg/injection, schedule: Q01DX Z (ip), vehicle: carboxymethylcellulose (CMC)) 3 of 6; (dose: 100.0 mg/kg/injection, schedule: Q01DX006 (iv), vehicle: carboxymethylcellulose (CMC)) 1 of 6; under setting [7], 0 of 6; (dose: 149.0 mg/kg/injection, schedule: Q01DX Z (ip), vehicle: carboxymethylcellulose (CMC)) 0 of 6; (dose: 150.0 mg/kg/injection, schedule: Q01DX Z (ip), vehicle: carboxymethylcellulose (CMC)) 0 of 6; (dose: 200.0 mg/kg/injection, schedule: Q01DX006 (iv), vehicle: carboxymethylcellulose (CMC)) 0 of 6. Further, the survivor count runs as follows: (dose: 223.0 mg/kg/injection, schedule: Q01DX Z (ip), vehicle: saline) 3 of 6; (dose: 400.0 mg/kg/injection, schedule: Q01DX006 (iv), vehicle: carboxymethylcellulose (CMC)) 0 of 6; (dose: 400.0 mg/kg/injection, schedule: Q01DX Z (ip), vehicle: carboxymethylcellulose (CMC)) 6 of 6; (dose: 440.0 mg/kg/injection, schedule: Q01DX Z (ip), vehicle: saline) 2 of 7; (dose: 800.0 mg/kg/injection, schedule: Q01DX015 (ip), vehicle: saline) 4 of 6.
In the case of `Cc1ccc(N=Nc2ccc(N(C)C)cc2)c2cccnc12`, under setting [5], the survivor count is 6 of 6.
Consider `Clc1ccccc1-c1ncc2cnccn12`, for which the survivor count is, setting by setting: under setting [4], 4 of 6; under setting [5], 0 of 6.
For the molecule `N=C(N)SCCN1C(=O)c2ccccc2C1=O`, the survivor count runs as follows: under setting [4], 1 of 6; under setting [5], 0 of 6.
With `CC/C=C(\C)C1(CC)C(=O)NC(=O)NC1=O`, under “dose: 300.0 mg/kg/injection, schedule: Q01DX001 (ip), vehicle: saline”, the survivor count is recorded as 3 of 6.
Turning to `CC(=O)Nc1ccc(N=NN(C)C)cc1`, the survivor count was 0 of 10 (dose: 50.0 mg/kg/injection, schedule: Q01DX001 (ip), vehicle: saline with Tween-80); 0 of 10 (dose: 100.0 mg/kg/injection, schedule: Q01DX001 (ip), vehicle: saline with Tween-80); 0 of 10 (dose: 200.0 mg/kg/injection, schedule: Q01DX001 (ip), vehicle: saline with Tween-80); 0 of 10 (dose: 400.0 mg/kg/injection, schedule: Q01DX001 (ip), vehicle: saline with Tween-80).
Turning to `CN(N=O)C(=O)C(=O)N(C)N=O`, the survivor count is, setting by setting: (dose: 26.0 mg/kg/injection, schedule: Q01DX001 (ip), vehicle: other) 5 of 6; (dose: 40.0 mg/kg/injection, schedule: Q01DX001 (ip), vehicle: other) 6 of 6; (dose: 60.0 mg/kg/injection, schedule: Q01DX001 (ip), vehicle: other) 1 of 6; (dose: 93.0 mg/kg/injection, schedule: Q01DX001 (ip), vehicle: other) 0 of 6; (dose: 187.0 mg/kg/injection, schedule: Q01DX001 (ip), vehicle: other) 0 of 6; (dose: 250.0 mg/kg/injection, schedule: Q01DX001 (ip), vehicle: other) 0 of 6. Besides, the survivor count (dose: 375.0 mg/kg/injection, schedule: Q01DX001 (ip), vehicle: other) was 0 of 6; the survivor count (dose: 500.0 mg/kg/injection, schedule: Q01DX001 (ip), vehicle: other) is on record as 0 of 6; the survivor count (dose: 750.0 mg/kg/injection, schedule: Q01DX001 (ip), vehicle: other) was 0 of 6.
For the molecule `CNC(=O)Nc1nc2ccccc2s1`, under “dose: 200.0 mg/kg/injection, schedule: Q04DX002 (ip), vehicle: Klucel (hydroxypropylcellulose) (HPC)”, the survivor count is 3 of 3.
Take `C=CC(c1ccccc1)C(O)(Cc1ccccc1)Cc1ccccc1` (stereo unspecified): the survivor count reads like this: (dose: 50.0 mg/kg/injection, schedule: Q01DX009 (ip), vehicle: DMSO) 2 of 3; (dose: 100.0 mg/kg/injection, schedule: Q01DX009 (ip), vehicle: DMSO) 1 of 3; (dose: 200.0 mg/kg/injection, schedule: Q01DX009 (ip), vehicle: DMSO) 3 of 3.
Regarding `O=[N+]([O-])c1ccc(S(=O)(=O)OCc2ccccc2OS(=O)(=O)c2ccc([N+](=O)[O-])cc2)cc1`, the survivor count was 6 of 6 (dose: 200.0 mg/kg/injection, schedule: Q04DX003 (ip), vehicle: Klucel (hydroxypropylcellulose) (HPC)) and 6 of 6 under setting [6].
On to `CCOC(=O)Nc1cc(NCCc2ccccc2)c(N)c(N)n1`, for which the survivor count (dose: 100.0 mg/kg/injection, schedule: Q01DX001 (ip), vehicle: saline) is reported as 6 of 6; the survivor count (dose: 200.0 mg/kg/injection, schedule: Q01DX001 (ip), vehicle: saline) is listed as 1 of 6; the survivor count (dose: 400.0 mg/kg/injection, schedule: Q01DX001 (ip), vehicle: saline) is given as 0 of 6.
Regarding `COc1cc(/C=C2\C(=O)NC(=O)N(c3ccccc3)C2=O)cc(OC)c1OC`, where the note is “dose: 200.0 mg/kg/injection, schedule: Q01DX009 (ip), vehicle: saline with Tween-80”, the survivor count is 3 of 6.
